Values of other authors in US20130195925A1, “ANTI AGING APPLICATION AND METHOD FOR TREATING AGING” (VASKIN, LLC, priority 2011, published 2013).
At least one compound was matched to its structure with a doubt left.

Target: T1, Tyrosinase (Homo sapiens, UniProt P14679)
T1 sequence (P14679 19-529): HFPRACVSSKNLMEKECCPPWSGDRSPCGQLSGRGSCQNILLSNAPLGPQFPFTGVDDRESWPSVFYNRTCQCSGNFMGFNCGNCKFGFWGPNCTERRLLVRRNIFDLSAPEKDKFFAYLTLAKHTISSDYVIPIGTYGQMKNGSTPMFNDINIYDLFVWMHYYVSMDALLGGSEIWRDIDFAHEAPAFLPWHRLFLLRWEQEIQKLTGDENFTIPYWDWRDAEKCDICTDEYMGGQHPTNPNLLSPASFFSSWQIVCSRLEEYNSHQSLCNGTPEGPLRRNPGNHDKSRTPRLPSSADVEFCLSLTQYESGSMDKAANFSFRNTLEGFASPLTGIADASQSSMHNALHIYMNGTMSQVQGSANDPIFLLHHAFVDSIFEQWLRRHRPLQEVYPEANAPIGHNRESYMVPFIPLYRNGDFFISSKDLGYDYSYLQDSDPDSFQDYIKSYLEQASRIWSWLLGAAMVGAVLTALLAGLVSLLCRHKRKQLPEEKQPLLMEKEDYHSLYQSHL

## COc1cc(CCC(=O)CC(=O)CCc2ccc(O)c(OC)c2)ccc1O [Tetrahydrocurcumin]
  Tyrosinase inhibition: efficiently inhibit
